Reference: article doi:10.1101/2024.08.17.24311658
Where a chain is given by its changes, count along the chain named. No constants are given. Whether binding was seen depends on the method and setting. In cells and extracts the contact can be indirect. A yes stands for co-enrichment or nearness to the bait. Other partners may have been found. For some of these results: Where a sequence is shown, tags or fusion partners need not be part of it.

Amino acid sequences for entries named in this document (tags omitted). A change or cut given only in a name is not applied to a line headed by its entry.
UniProt Q9H0A8: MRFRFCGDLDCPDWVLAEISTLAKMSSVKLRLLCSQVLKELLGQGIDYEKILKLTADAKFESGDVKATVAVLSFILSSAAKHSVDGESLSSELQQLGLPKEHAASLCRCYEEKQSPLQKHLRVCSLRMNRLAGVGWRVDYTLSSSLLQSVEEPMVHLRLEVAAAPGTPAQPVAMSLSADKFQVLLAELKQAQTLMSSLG
UniProt Q8TCE6: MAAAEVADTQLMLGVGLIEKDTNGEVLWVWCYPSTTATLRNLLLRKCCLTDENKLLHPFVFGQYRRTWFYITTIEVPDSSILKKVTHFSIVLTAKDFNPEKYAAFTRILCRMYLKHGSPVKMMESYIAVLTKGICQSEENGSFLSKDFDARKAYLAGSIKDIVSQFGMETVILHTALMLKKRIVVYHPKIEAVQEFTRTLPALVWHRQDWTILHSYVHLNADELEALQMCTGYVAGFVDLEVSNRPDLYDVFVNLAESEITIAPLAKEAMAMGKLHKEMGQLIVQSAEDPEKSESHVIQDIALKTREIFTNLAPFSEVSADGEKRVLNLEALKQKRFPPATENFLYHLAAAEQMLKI
UniProt Q14194: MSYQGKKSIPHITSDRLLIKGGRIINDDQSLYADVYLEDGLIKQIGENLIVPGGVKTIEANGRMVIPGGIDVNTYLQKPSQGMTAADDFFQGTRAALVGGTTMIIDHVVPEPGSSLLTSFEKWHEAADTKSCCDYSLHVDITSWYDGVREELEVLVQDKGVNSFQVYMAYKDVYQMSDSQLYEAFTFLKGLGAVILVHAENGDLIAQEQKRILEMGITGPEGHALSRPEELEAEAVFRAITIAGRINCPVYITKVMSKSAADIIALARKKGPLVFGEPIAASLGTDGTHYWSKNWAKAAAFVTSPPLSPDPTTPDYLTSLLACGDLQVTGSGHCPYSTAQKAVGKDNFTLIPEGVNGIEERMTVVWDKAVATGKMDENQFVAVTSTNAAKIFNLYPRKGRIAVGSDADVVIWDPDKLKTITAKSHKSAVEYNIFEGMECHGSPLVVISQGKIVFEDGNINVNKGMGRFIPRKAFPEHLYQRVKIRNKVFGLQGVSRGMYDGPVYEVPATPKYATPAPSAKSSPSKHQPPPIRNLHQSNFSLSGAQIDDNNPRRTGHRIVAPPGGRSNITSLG
UniProt Q14195: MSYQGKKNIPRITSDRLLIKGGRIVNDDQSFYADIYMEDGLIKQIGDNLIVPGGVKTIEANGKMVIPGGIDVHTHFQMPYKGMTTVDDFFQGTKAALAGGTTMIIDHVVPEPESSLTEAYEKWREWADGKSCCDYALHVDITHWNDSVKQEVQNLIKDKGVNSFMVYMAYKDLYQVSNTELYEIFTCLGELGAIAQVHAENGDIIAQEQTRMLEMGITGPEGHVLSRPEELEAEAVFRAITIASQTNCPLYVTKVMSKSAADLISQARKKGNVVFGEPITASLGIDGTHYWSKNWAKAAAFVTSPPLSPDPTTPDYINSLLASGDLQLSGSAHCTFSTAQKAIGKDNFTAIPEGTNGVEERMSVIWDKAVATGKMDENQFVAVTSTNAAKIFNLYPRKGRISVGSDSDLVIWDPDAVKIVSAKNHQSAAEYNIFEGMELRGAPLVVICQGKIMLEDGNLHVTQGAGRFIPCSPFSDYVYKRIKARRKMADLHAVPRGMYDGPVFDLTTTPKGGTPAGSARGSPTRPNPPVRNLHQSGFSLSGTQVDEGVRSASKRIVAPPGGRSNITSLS

Assays:
Experiment in all cases: affinity purification with mass spectrometry
[1] = target: GFP-COMMD4 wild-type (human) (UniProt Q9H0A8)
GFP-COMMD4-L41R (human) = GFP-COMMD4-L41R (human) (UniProt Q9H0A8)
[2] = target: T1, DPYSL5 wild-type tagged with GFP at the carboxy-terminal end (human) (UniProt Q9BPU6)
T1 sequence: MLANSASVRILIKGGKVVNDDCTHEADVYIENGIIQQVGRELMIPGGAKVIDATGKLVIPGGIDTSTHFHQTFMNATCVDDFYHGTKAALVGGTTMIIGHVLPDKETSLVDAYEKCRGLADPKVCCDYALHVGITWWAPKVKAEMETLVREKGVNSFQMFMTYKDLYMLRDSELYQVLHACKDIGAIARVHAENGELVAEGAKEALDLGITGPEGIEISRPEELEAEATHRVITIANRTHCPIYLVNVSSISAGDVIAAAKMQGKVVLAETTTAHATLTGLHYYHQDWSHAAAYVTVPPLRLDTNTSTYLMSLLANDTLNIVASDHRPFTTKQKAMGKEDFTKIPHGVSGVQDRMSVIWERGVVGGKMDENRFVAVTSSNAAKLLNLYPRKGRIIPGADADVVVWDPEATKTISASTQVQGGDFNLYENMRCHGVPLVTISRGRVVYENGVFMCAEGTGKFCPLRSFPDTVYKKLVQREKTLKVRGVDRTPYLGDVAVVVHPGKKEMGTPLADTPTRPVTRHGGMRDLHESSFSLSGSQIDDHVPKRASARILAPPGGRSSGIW

[3] = target: T2, DPYSL5-E41K tagged with GFP at the carboxy-terminal end (human) (UniProt Q9BPU6)
T2 sequence: T1 sequence with E41K

[4] = target: T3, GFP-DPYSL5 wild-type (GFP at the amino-terminal end) (human) (UniProt Q9BPU6)
T3 sequence: T1 sequence

[5] = target: T4, GFP-DPYSL5-E41K (GFP at the amino-terminal end) (human) (UniProt Q9BPU6)
T4 sequence: T1 sequence with E41K

Measured: binding

DENND10 (from UniProt Q8TCE6 1-357)
binds: [1] | GFP-COMMD4-L41R (human)

DPYSL1 (from UniProt Q14194 1-572)
binds: [2] | [3] | [4] | [5]

DPYSL3 (from UniProt Q14195 1-570)
binds: [2] | [3] | [4] | [5]
